Holding throughout (experiment): two-hybrid; yeast AH109; SEC and SPY as bait (BD), SPT as prey (AD); growth on SD/−Ade/−His/−Leu/−Trp and with 2.5 mM 3-AT, serial dilutions, five days at 28 °C
Assay [1] addresses SEC N-terminal tetratricopeptide repeats (TPRs 1–13), yeast two-hybrid bait (BD) (Arabidopsis thaliana).
The target of assay [2] is SPY carboxy-terminal catalytic domain, yeast two-hybrid bait (BD) (Arabidopsis thaliana).
For assay [3], the target named is SPY N-terminal tetratricopeptide repeats (TPRs 1–11), yeast two-hybrid bait (BD) (Arabidopsis thaliana).
For assay [4], the target named is SEC carboxy-terminal catalytic domain, yeast two-hybrid bait (BD) (Arabidopsis thaliana).

Results are given in words; binding and its absence hold for the method and conditions named. For some of these results: Binding calls can cover weak binding; strength is not graded here. Where a sequence is shown, tags or fusion partners need not be part of it.

B1: SPT–GFP (35S::SPT::GFP) (natural protein, Arabidopsis thaliana, UniProt Q9FUA4 1-373, looked up)
chain: MISQREEREEKKQRVMGDKKLISSSSSSSVYDTRINHHLHHPPSSSDEISQFLRHIFDRSSPLPSYYSPATTTTTASLIGVHGSGDPHADNSRSLVSHHPPSDSVLMSKRVGDFSEVLIGGGSGSAAACFGFSGGGNNNNVQGNSSGTRVSSSSVGASGNETDEYDCESEEGGEAVVDEAPSSKSGPSSRSSSKRCRAAEVHNLSEKRRRSRINEKMKALQSLIPNSNKTDKASMLDEAIEYLKQLQLQVQMLTMRNGINLHPLCLPGTTLHPLQLSQIRPPEATNDPLLNHTNQFASTSNAPEMINTVASSYALEPSIRSHFGPFPLLTSPVEMSREGGLTHPRLNIGHSNANITGEQALFDGQPDLKDRIT
notes: SPATULA (SPT), Arabidopsis thaliana; in the self-association row the second copy carried RFP in place of EGFP (35S::SPT–RFP); also called SPT–EGFP; SPT–RFP (the second copy in the homodimer test); source: N. benthamiana leaves, Agrobacterium-infiltrated, in nuclei of leaf cells
As to B1, the binding entry is on record as “binds” in assay [1], “no binding” in assay [2], “binds” in assay [3] and “no binding” in assay [4].

These data come from paper PMC10881398, “O-glycosylation of the transcription factor SPATULA promotes style development in Arabidopsis” (Nature Plants, 2024).
